Assay results: publication doi:10.1101/302299
These are yes or no findings as the source states them, for the method shown.

Protein sequences, listed by entry. Tags and fused reporters are not part of them.
UniProt Q9LSX0, whole entry: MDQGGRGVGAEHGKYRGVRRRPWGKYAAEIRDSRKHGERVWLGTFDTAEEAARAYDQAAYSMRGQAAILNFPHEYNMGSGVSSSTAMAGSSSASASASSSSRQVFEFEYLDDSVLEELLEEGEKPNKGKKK

Target: Arabidopsis ETHYLENE RESPONSE FACTOR 96 (Arabidopsis thaliana) (UniProt Q9LSX0)
Assay: SEC + other: dynamic light scattering

binding: no binding (tested: 1 mg/mL (DLS))
Substance: Arabidopsis ETHYLENE RESPONSE FACTOR 96 (from UniProt Q9LSX0 1-131)
